Consider one substance from PMC11705955, “Lack of activity of HIV-1 integrase strand-transfer inhibitors on recombinase activating gene (RAG) activity at clinically relevant concentrations” (Microbiology Spectrum, 2024).

By UniProt entry, the sequences of proteins in these tests, tags left out. Residues count along the entry.
UniProt P09429, residues 1-163: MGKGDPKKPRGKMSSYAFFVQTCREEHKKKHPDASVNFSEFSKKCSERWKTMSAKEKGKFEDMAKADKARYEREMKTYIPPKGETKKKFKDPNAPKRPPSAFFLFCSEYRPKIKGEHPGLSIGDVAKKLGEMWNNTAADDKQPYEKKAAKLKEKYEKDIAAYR

No constants are given. Whether binding was seen depends on the method and setting.

In the assay the target is human HMGB1 (AA1-163) (human) (UniProt P09429). The experiment in a line: SEC-MALS; Superdex 200 Increase 5/150 GL, 25-mM HEPES (pH 7.0), 100-mM KCl, 2-mM DTT, 0.1-mM EDTA, 0.3 mL/min, room temperature; 1.37 µg/µL in 55 µL applied; both purified.

Take “human HMGB1 (AA1-163) (from UniProt P09429 1-163) (domain or fragment)”: the binding result is given as “no binding (tested: 1.37 µg/µL)”.
